These are yes or no findings as the source states them, for the method shown. In cells and extracts the contact can be indirect. Some binding calls cover weakened binding; strength is not graded here.
T1: endogenous WWOX (mouse (endogenous in BALB/c mouse organs)) (UniProt Q91WL8)
T1 sequence: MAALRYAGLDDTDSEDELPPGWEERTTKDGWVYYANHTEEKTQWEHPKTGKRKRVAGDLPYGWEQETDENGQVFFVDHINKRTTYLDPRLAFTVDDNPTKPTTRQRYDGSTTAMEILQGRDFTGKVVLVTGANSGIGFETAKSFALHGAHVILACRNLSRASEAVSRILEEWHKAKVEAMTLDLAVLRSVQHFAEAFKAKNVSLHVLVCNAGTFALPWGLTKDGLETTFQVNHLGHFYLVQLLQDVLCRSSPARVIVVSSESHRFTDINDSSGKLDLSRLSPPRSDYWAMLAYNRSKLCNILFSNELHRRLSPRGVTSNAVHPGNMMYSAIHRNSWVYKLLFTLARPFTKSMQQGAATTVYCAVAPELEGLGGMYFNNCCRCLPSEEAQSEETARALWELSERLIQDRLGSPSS

Protein sequences, listed by entry. Tags and fused reporters are not part of them.
UniProt Q61221: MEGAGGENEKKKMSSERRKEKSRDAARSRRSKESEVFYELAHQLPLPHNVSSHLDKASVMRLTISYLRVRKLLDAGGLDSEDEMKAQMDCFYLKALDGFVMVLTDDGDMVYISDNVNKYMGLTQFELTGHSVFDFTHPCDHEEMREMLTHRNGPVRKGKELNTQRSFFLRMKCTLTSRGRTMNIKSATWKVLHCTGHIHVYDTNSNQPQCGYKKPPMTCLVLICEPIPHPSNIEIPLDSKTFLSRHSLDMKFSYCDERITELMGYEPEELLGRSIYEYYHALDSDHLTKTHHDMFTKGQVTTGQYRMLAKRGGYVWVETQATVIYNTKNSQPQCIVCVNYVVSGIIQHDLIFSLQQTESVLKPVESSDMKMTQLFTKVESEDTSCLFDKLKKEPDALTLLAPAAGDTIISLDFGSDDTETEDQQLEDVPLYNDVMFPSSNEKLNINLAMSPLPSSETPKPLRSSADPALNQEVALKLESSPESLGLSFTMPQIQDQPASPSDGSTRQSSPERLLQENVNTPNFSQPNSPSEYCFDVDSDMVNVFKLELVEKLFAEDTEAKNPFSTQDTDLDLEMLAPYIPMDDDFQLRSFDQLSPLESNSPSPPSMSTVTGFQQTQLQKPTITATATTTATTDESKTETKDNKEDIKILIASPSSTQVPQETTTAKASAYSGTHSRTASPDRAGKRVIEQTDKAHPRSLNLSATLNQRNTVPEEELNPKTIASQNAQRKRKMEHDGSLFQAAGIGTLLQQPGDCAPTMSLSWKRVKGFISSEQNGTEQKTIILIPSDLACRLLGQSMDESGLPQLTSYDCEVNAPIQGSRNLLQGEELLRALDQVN
UniProt Q91Y86: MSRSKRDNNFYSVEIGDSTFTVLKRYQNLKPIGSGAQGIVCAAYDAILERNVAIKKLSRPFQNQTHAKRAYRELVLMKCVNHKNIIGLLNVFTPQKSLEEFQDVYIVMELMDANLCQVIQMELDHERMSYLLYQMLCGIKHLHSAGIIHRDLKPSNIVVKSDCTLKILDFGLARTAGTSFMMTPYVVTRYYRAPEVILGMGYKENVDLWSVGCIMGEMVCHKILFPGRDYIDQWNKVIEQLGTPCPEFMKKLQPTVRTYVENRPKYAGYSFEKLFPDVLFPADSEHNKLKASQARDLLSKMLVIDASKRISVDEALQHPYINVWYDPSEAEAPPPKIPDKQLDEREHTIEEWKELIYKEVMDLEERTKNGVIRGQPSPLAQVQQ

T2: Zinc finger-like protein that regulates apoptosis (Zfra), full length, expressed from Zfra-pIRES2-Wwox-DsRed-Express (human/murine)
T2 sequence: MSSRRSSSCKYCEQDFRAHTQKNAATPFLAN


How the values were obtained:
[1] = molecular target: T1, endogenous WWOX (mouse (endogenous in BALB/c mouse organs)); assay: co-IP; spleen lysates (500 μg) of BALB/c mice given PBS, Zfra4-10 and/or WWOX7-21 peptide and inoculated with 4T1 cells; specific antibody (3 μg) and protein G agarose beads, 6 to 18 h, washed with PBS; Western blot
[2] = molecular target: T2, Zinc finger-like protein that regulates apoptosis (Zfra), full length, expressed from Zfra-pIRES2-Wwox-DsRed-Express (human/murine); assay: co-IP; Zfra and WWOX-DsRed from a bicistronic pIRES-based vector transiently overexpressed in COS7 cells; precipitated with Zfra antiserum; reducing SDS-PAGE, complex at ~76 kDa
[3] = molecular target: HIF-1α (mouse (endogenous in BALB/c mouse spleen)) (UniProt Q61221); assay: co-IP; spleen lysates (500 μg) of BALB/c mice given PBS, Zfra4-10 and/or WWOX7-21 peptide and inoculated with 4T1 cells; specific antibody (3 μg) and protein G agarose beads, 6 to 18 h, washed with PBS; Western blot

Molecule | binding [1] | binding [2] | binding [3]
JNK1 (from UniProt Q91Y86 1-384) | binds |  | 
WWOX-DsRed (murine Wwox cloned in pIRES2-DsRed-Express) (protein, UniProt Q91WL8 1-414) MAALRYAGLDDTDSEDELPPGWEERTTKDGWVYYANHTEEKTQWEHPKTGKRKRVAGDLPYGWEQETDENGQVFFVDHINKRTTYLDPRLAFTVDDNPTKPTTRQRYDGSTTAMEILQGRDFTGKVVLVTGANSGIGFETAKSFALHGAHVILACRNLSRASEAVSRILEEWHKAKVEAMTLDLAVLRSVQHFAEAFKAKNVSLHVLVCNAGTFALPWGLTKDGLETTFQVNHLGHFYLVQLLQDVLCRSSPARVIVVSSESHRFTDINDSSGKLDLSRLSPPRSDYWAMLAYNRSKLCNILFSNELHRRLSPRGVTSNAVHPGNMMYSAIHRNSWVYKLLFTLARPFTKSMQQGAATTVYCAVAPELEGLGGMYFNNCCRCLPSEEAQSEETARALWELSERLIQDRLGSPSS |  | binds | 
Foxp3 (protein, UniProt Q99JB6 1-417) MPNPRPAKPMAPSLALGPSPGVLPSWKTAPKGSELLGTRGSGGPFQGRDLRSGAHTSSSLNPLPPSQLQLPTVPLVMVAPSGARLGPSPHLQALLQDRPHFMHQLSTVDAHAQTPVLQVRPLDNPAMISLPPPSAATGVFSLKARPGLPPGINVASLEWVSREPALLCTFPRSGTPRKDSNLLAAPQGSYPLLANGVCKWPGCEKVFEEPEEFLKHCQADHLLDEKGKAQCLLQREVVQSLEQQLELEKEKLGAMQAHLAGKMALAKAPSVASMDKSSCCIVATSTQGSVLPAWSAPREAPDGGLFAVRRHLWGSHGNSSFPEFFHNMDYFKYHNMRPPFTYATLIRWAILEAPERQRTLNEIYHWFTRMFAYFRNHPATWKNAIRHNLSLHKCFVRVESEKGAVWTVDEFEFRKKR | binds |  | 
C1qBP (protein, UniProt O35658 71-278) LHTEGDKAFVEFLTDEIKEEKKIQKHKSLPKMSGDWELEVNGTEAKLLRKVAGEKITVTFNINNSIPPTFDGEEEPSQGQKAEEQEPERTSTPNFVVEVTKTDGKKTLVLDCHYPEDEIGHEDEAESDIFSIKEVSFQATGDSEWRDTNYTLNTDSLDWALYDHLMDFLADRGVDNTFADELVELSTALEHQEYITFLEDLKSFVKNQ | binds |  | binds
p21 (protein, UniProt P39689 1-159) MSNPGDVRPVPHRSKVCRCLFGPVDSEQLRRDCDALMAGCLQEARERWNFDFVTETPLEGNFVWERVRSLGLPKVYLSPGSRSRDDLGGDKRPSTSSALLQGPAPEDHVALSLSCTLVSERPEDSPGGPGTSQGRKRRQTSLTDFYHSKRRLVFCKRKP | binds |  | binds weakly
CD133 (protein, UniProt O54990 20-867) EGQPAFHNTPGAMNYELPTTKYETQDTFNAGIVGPLYKMVHIFLSVVQPNDFPLDLIKKLIQNKKFDISVDSKEPEIIVLALKIALYEIGVLICAILGLLFIILMPLVGCFFCMCRCCNKCGGEMHQRQKQNAPCRRKCLGLSLLVICLLMSLGIIYGFVANQQTRTRIKGTQKLAKSNFRDFQTLLTETPKQIDYVVEQYTNTKNKAFSDLDGIGSVLGGRIKDQLKPKVTPVLEEIKAMATAIKQTKDALQNMSSSLKSLQDAATQLNTNLSSVRNSIENSLSSSDCTSDPASKICDSIRPSLSSLGSSLNSSQLPSVDRELNTVTEVDKTDLESLVKRGYTTIDEIPNTIQNQTVDVIKDVKNTLDSISSNIKDMSQSIPIEDMLLQVSHYLNNSNRYLNQELPKLEEYDSYWWLGGLIVCFLLTLIVTFFFLGLLCGVFGYDKHATPTRRGCVSNTGGIFLMAGVGFGFLFCWILMILVVLTFVVGANVEKLLCEPYENKKLLQVLDTPYLLKEQWQFYLSGMLFNNPDINMTFEQVYRDCKRGRGIYAAFQLENVVNVSDHFNIDQISENINTELENLNVNIDSIELLDNTGRKSLEDFAHSGIDTIDYSTYLKETEKSPTEVNLLTFASTLEAKANQLPEGKPKQAFLLDVQNIRAIHQHLLPPVQQSLNTLRQSVWTLQQTSNKLPEKVKKILASLDSVQHFLTNNVSLIVIGETKKFGKTILGYFEHYLHWVFYAITEKMTSCKPMATAMDSAVNGILCGYVADPLNLFWFGIGKATVLLLPAVIIAIKLAKYYRRMDSEDVYDDVETVPMKNLEIGSNGYHKDHLYGVHNPVMTSPSRY | binds |  | 

From paper PMC7464583
